Experimental data: PubChem BioAssay AID493246 (Drosophila RNAi Screening Center, 2011)
In all, the deposit lists about 21,000 reagents; below is an unselected part of those with a known target gene and a result. Of all reagents, 429 (2%) were called active. 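Values are raw and not normalised between plates; calls rest on per-plate z-scores that were not deposited.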 A plus sign joins genes that one reagent is predicted to hit. Reagent sequences are not shown. The record does not give: the amount of reagent, the time to read-out.

- Purpose: 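Genes fly cells need to grow and stay alive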 (primary screen)
- System: Drosophila Kc and S2R+ cells
- Reagent: long dsRNA against Drosophila genes
- Read-out: 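Cell number per well after knock-down, printed as raw plate values; calls were based on per-plate z-scores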
- Reading the numbers: Kc cell number and S2R+ cell number: higher = more cells remaining
- Call rule: 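Active when the per-plate z-score of cell number is 3 or more in the direction of fewer cells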

| Target gene | amplicon | Kc cell number, rep 1 | Kc cell number, rep 2 | S2R+ cell number, rep 1 | S2R+ cell number, rep 2 | call |
| --- | --- | --- | --- | --- | --- | --- |
| RpS3 (Ribosomal protein S3) | DRSC16838 | 8.00e5 | 9.19e5 | 7.47e5 | 8.54e5 | active |
| CG13131 | DRSC02227 | 1.47e6 | 1.49e6 | 1.18e6 | 1.27e6 | inactive |
| Bet3 (Blocked early in transport 3) | DRSC10388 | 1.56e6 | 1.49e6 | 1.26e6 | 1.50e6 | inactive |
| CG6340 | DRSC19987 | 1.19e6 | 1.33e6 | 9.33e5 | 1.05e6 | inactive |
| Cdc2rk (Cdc2-related kinase) | DRSC07590 | 1.48e6 | 1.57e6 | 1.24e6 | 1.32e6 | inactive |
| CG9961 | DRSC00738 | 1.56e6 | 1.59e6 | 1.10e6 | 1.29e6 | inactive |
| CG15465 | DRSC18048 | 1.57e6 | 1.60e6 | 1.14e6 | 1.29e6 | inactive |
| TfIIB (Transcription factor IIB) | DRSC03454 | 1.59e6 | 1.73e6 | 1.19e6 | 1.31e6 | inactive |
| CG33099 | DRSC15774 | 1.38e6 | 1.51e6 | 1.08e6 | 1.20e6 | inactive |
| eIF5B (eukaryotic translation initiation factor 5B) | DRSC08429 | 1.57e6 | 1.52e6 | 9.64e5 | 1.34e6 | inactive |
| eIF5B (eukaryotic translation initiation factor 5B) | DRSC08710 | 1.84e6 | 1.75e6 | 9.65e5 | 1.32e6 | inactive |
| bsd (back seat driver) | DRSC05953 | 1.93e6 | 1.78e6 | 1.01e6 | 1.23e6 | inactive |
| CG3494 | DRSC04375 | 1.50e6 | 1.58e6 | 1.31e6 | 1.39e6 | inactive |
| ine (inebriated) | DRSC00822 | 1.11e6 | 1.32e6 | 6.64e5 | 6.63e5 | inactive |

Targets listed so far whose target name starts with B or b:
| Target gene | amplicon | Kc cell number, rep 1 | Kc cell number, rep 2 | S2R+ cell number, rep 1 | S2R+ cell number, rep 2 | call |
| --- | --- | --- | --- | --- | --- | --- |
| Bet3 (Blocked early in transport 3) | DRSC10388 | 1.56e6 | 1.49e6 | 1.26e6 | 1.50e6 | inactive |
| bsd (back seat driver) | DRSC05953 | 1.93e6 | 1.78e6 | 1.01e6 | 1.23e6 | inactive |

The listing continues.
| Target gene | amplicon | Kc cell number, rep 1 | Kc cell number, rep 2 | S2R+ cell number, rep 1 | S2R+ cell number, rep 2 | call |
| --- | --- | --- | --- | --- | --- | --- |
| Prosbeta4 (Proteasome beta4 subunit) | DRSC02603 | 9.53e5 | 1.05e6 | 7.31e5 | 8.19e5 | active |
| CG14853 | DRSC14977 | 1.40e6 | 1.45e6 | 9.79e5 | 1.12e6 | inactive |
| CG10845 | DRSC14272 | 1.58e6 | 1.55e6 | 9.46e5 | 1.03e6 | inactive |
| CG30480 | DRSC06736 | 1.57e6 | 1.66e6 | 1.41e6 | 1.47e6 | inactive |
| CG15356 | DRSC00386 | 1.52e6 | 1.59e6 | 9.69e5 | 1.13e6 | inactive |
| THADA | DRSC19675 | 1.55e6 | 1.59e6 | 1.07e6 | 1.22e6 | inactive |
| tap (target of Poxn) | DRSC11402 | 1.54e6 | 1.47e6 | 1.15e6 | 1.28e6 | inactive |
| CG4074 + CG4186 | DRSC11753 | 1.36e6 | 1.28e6 | 1.29e6 | 1.38e6 | inactive |
| Crz (Corazonin) | DRSC16615 | 1.49e6 | 1.51e6 | 1.15e6 | 1.25e6 | inactive |
| pix (pixie) | DRSC10533 | 1.36e6 | 1.51e6 | 8.67e5 | 9.72e5 | inactive |
| CG13255 | DRSC11702 | 1.27e6 | 1.38e6 | 1.28e6 | 1.33e6 | inactive |
| CG9467 | DRSC16498 | 1.49e6 | 1.56e6 | 1.30e6 | 1.36e6 | inactive |
| Alp7 (Alkaline phosphatase 7) | DRSC04355 | 1.36e6 | 1.59e6 | 1.25e6 | 4.50e5 | inactive |
| CG8908 | DRSC07297 | 1.59e6 | 1.64e6 | 1.24e6 | 1.38e6 | inactive |
| flap (flapper) | DRSC03918 | 5.88e5 | – | 7.85e5 | – | inactive |
| flap (flapper) | DRSC04087 | 1.37e6 | 1.39e6 | 1.05e6 | 1.02e6 | inactive |
| CG14125 | DRSC10129 | 1.31e6 | 1.40e6 | 1.34e6 | 1.50e6 | inactive |
| mRRF2 (mitochondrial ribosome recycling factor 2) | DRSC16143 | 1.68e6 | 1.78e6 | 1.03e6 | 1.16e6 | inactive |
| spel1 (spellchecker1) | DRSC03617 | 1.80e6 | 1.94e6 | 1.29e6 | 1.39e6 | inactive |
| Krn (Keren) | DRSC11202 | 1.28e6 | 1.31e6 | 1.18e6 | 1.21e6 | inactive |
| twz (tiwaz) | DRSC04069 | 1.63e6 | 1.74e6 | 1.36e6 | 3.08e5 | inactive |
| CG32428 | DRSC11697 | 1.59e6 | 1.74e6 | 9.80e5 | 1.07e6 | inactive |
| CG32428 | DRSC11768 | 1.31e6 | 1.57e6 | 1.20e6 | 1.32e6 | inactive |
| Eno (Enolase) | DRSC00750 | 1.55e6 | 1.49e6 | 1.06e6 | 1.26e6 | inactive |
| Drsl6 (Drosomycin-like 6) | DRSC08161 | 1.36e6 | 1.33e6 | 1.05e6 | 1.20e6 | inactive |
| frma (fra mauro) | DRSC18297 | 5.44e5 | – | 8.52e5 | – | inactive |
